According to patent publication US20100233093A1, “Magnetic resonance imaging contrast agent with paramagnetic-inositol phosphates complexes” (GACHON UNIVERSITY OF MEDICINE & SCIENCE INDUSTRY-ACADEMIC …, priority 2009, published 2010):

Key:
[1] = ITC analysis of Ca^2+ binding to phytate; conditions: 310 K; for n1 (number of ions bound per phytate molecule): site I; for n2 (number of ions bound per phytate molecule): sites II&III
[2] = ITC analysis of Gd^3+ binding to DTPA; conditions: 298 K; for n1 (number of Gd^3+ bound per mole) / ΔS1: site I; for n2 (number of Gd^3+ bound per mole) / ΔS2: site II
[3] = ITC analysis of Gd^3+ binding to inositol phosphates; conditions: 10 mM HEPES pH 7.0, 298 K; for n1 (number of Gd^3+ bound per molecule): site I

O=P(O)(O)OC1C(OP(=O)(O)O)C(OP(=O)(O)O)C(OP(=O)(O)O)C(OP(=O)(O)O)C1OP(=O)(O)O (stereo not drawn) [phytate]
n1 (number of ions bound per phytate molecule) ([1]; pH 2): 0.80 | n1 (number of ions bound per phytate molecule) ([1]; pH 3): 0.72 | n1 (number of ions bound per phytate molecule) ([1]; pH 4): 0.89 | n1 (number of ions bound per phytate molecule) ([1]; pH 5): 1.18 | n1 (number of ions bound per phytate molecule) ([1]; pH 6): 1.27 | n1 (number of ions bound per phytate molecule) ([1]; pH 7): 0.54 | n1 (number of ions bound per phytate molecule) ([1]; pH 8): 0.1 | n1 (number of ions bound per phytate molecule) ([1]; pH 9): 0.45 | n2 (number of ions bound per phytate molecule) ([1]; pH 3): 2.73 | n2 (number of ions bound per phytate molecule) ([1]; pH 4): 3.11 | n2 (number of ions bound per phytate molecule) ([1]; pH 5): 4.24 | n2 (number of ions bound per phytate molecule) ([1]; pH 6): 2.01 | n2 (number of ions bound per phytate molecule) ([1]; pH 7): 1.84 | n2 (number of ions bound per phytate molecule) ([1]; pH 8): 2.52 | n2 (number of ions bound per phytate molecule) ([1]; pH 9): 2.77

O=C(O)CN(CCN(CC(=O)O)CC(=O)O)CCN(CC(=O)O)CC(=O)O [DTPA, diethylene triamine pentaacetic acid]
n1 (number of Gd^3+ bound per mole) ([2]; pH 4.8, 10 mM sodium acetate): 0.68 | ΔS1 ([2]; pH 4.8, 10 mM sodium acetate): 35.6 cal/mol/deg^−1 | n1 (number of Gd^3+ bound per mole) ([2]; pH 7.8): 0.7 | ΔS1 ([2]; pH 7.8): 22.2 cal/mol/deg^−1 | n2 (number of Gd^3+ bound per mole) ([2]; pH 4.8, 10 mM sodium acetate): 0.32 | ΔS2 ([2]; pH 4.8, 10 mM sodium acetate): 88.4 cal/mol/deg^−1 | n2 (number of Gd^3+ bound per mole) ([2]; pH 7.8): 0.9 | ΔS2 ([2]; pH 7.8): 39.4 cal/mol/deg^−1

O=P(O)(O)OC1[C@H](O)[C@H](OP(=O)(O)O)C(OP(=O)(O)O)[C@H](OP(=O)(O)O)[C@H]1O (stereo partly drawn) [Inositol-1,3,4,5-tetraphosphate, d-myo-inositol-1,3,4,5-tetrakisphosphate]
n1 (number of Gd^3+ bound per molecule) [3]: 1.97 | n2 (number of Gd^3+ bound per molecule) ([3]; site II): 0.11

O=P(O)(O)O[C@H]1[C@H](O)[C@@H](O)[C@H](OP(=O)(O)O)[C@@H](OP(=O)(O)O)[C@H]1O [Inositol 1,3,4-tisphosphate, d-myo-inositol-1,3,4-trisphosphate]
n1 (number of Gd^3+ bound per molecule) [3]: 1.71

O=P(O)(O)O[C@@H]1[C@H](O)[C@H](O)[C@@H](OP(=O)(O)O)[C@H](OP(=O)(O)O)[C@H]1O [Inositol-1,4,5-tisphosphate, d-myo-inositol-1,4,5-trisphosphate]
n1 (number of Gd^3+ bound per molecule) [3]: 1.28
